Assay results as given in patent publication US20240400677A1.
No constants are given. Whether binding was seen depends on the method and setting.

The chains behind the UniProt entries cited, without tags or fusion partners. Where a name states a change or a piece, a line headed by the entry shows the natural chain unless it says otherwise. A line that says so, or that is headed by a name, gives the form on record, which may keep a tag or linker. Residues count along the entry.
UniProt O00241, residues 30-371: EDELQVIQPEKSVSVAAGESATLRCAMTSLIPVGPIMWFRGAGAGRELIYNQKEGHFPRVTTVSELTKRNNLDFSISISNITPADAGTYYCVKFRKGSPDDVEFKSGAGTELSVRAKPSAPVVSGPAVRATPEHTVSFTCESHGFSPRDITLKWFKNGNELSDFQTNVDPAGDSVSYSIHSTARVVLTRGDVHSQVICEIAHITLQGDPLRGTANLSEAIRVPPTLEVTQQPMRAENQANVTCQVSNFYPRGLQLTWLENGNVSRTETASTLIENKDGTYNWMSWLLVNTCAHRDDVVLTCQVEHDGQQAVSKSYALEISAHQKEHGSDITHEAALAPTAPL
human SIRPα V2-His monomer protein (P78324, form named): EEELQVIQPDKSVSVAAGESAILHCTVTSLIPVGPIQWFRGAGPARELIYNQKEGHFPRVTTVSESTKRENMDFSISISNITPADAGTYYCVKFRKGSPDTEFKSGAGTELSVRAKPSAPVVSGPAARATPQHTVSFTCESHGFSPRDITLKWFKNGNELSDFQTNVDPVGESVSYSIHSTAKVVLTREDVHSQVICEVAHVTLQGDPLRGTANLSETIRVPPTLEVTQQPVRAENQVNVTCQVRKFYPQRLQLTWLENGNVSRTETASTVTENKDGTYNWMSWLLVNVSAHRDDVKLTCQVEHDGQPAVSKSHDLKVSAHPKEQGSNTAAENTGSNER

Assays:
Assay in all cases: BLI
[1] = target: human SIRPβ1-His monomer protein (human) (UniProt O00241)
[2] = target: cynomolgus monkey SIRPα-His monomer protein (cynomolgus monkey)
[3] = target: human SIRPα V2-His monomer protein (human) (UniProt P78324)

| Binder | binding [2] | binding [1] | binding [3] |
| --- | --- | --- | --- |
| Antibody 15 (scFv, V domains shown) VH: QVQLVQSGAEVKKPGASVKVSCKASGYSFTSYGISWVRQAPGQGLEWMGWISPYNGNTNYAQKLQGRVTMTRDTSTSTVYMELSSLRSEDTAVYYCAREAYGDYGDYFDYWGQGTLVTVSS VL: DIQMTQSPSSLSASVGDRVTITCRASQGVGDRSAWYQQKPGKAPKLLIYDASNLETGVPSRFSGSGSGTDFTLTISSLQPEDFATYYCQQADTFPYTFGQGTKLEIK | no binding (tested: <0.02 nm at 115 s) | no binding (tested: <0.02 nm at 115 s; 500 nM) | no binding (tested: <0.02 nm at 115 s; 500 nM) |
| Antibody 43 (scFv, V domains shown) VH: QVQLVQSGAEVKKPGASVKVSCKASGGTFTSYDINWVRQAPGQGLEWMGWISAYNGHTNYAQNLQGRVTMTRDTSTSTVYMELSSLRSEDTAVYYCAREDSSWYFDLWGRGTLVTVSS VL: DIQMTQSPSSLSASVGDRVTITCRASQSISSWLAWYQQKPGKAPKLLIYDASNLETGVPSRFSGSGSGTDFTLTISSLQPEDFATYYCQQSFSTPPTFGQGTKVEIK | no binding (tested: <0.02 nm at 115 s) | no binding (tested: <0.02 nm at 115 s; 500 nM) | no binding (tested: <0.02 nm at 115 s; 500 nM) |
| Antibody 17 (scFv, V domains shown) VH: QVQLVQSGAEVKKPGASVKVSCKASGYTFTRNYVHWVRQAPGQGLEWMGRINPNSGGTNTAQKFQGRVTMTRDTSTSTVYMELSSLRSEDTAVYYCARLGDVAVAASFDYWGQGTLVTVSS VL: DIQMTQSPSSLSASVGDRVTITCRASQSISSYLNWYQQKPGKAPKLLIYDASSLESGVPSRFSGSGSGTDFTLTISSLQPEDFATYYCQQANSFPLTFGPGTKVDIK | no binding (tested: <0.02 nm at 115 s) |  | no binding (tested: <0.02 nm at 115 s; 500 nM) |
| Antibody 28 (scFv, V domains shown) VH: QVQLVQSGAEVKKPGASVKVSCKASGYTFTSYNIHWVRQAPGQGLEWMGWISAYNGNTNYAQKLQGRVTMTRDTSTSTVYMELSSLRSEDTAVYYCALDGGQLGVAFDIWGQGTMVTVSS VL: DIQMTQSPSSLSASVGDRVTITCRASQGISNWLAWYQQKPGKAPKLLIYDASNLDAGVPSRFSGSGSGTDFTLTISSLQPEDFATYYCQQANSLPLTFGGGTKVEIK | no binding (tested: <0.02 nm at 115 s) |  |  |
| Antibody 37 (scFv, V domains shown) VH: QVQLVQSGAEVKKPGASVKVSCKASGYTLNNYDINWVRQAPGQGLEWMGWISGYNGNTNYAQKLQGRVTMTRDTSTSTVYMELSSLRSEDTAVYYCARVGSSWEENDQWGQGTLVTVSS VL: DIQMTQSPSSLSASVGDRVTITCRASQSISRWLAWYQQKPGKAPKLLIYAASSLESGVPSRFSGSGSGTDFTLTISSLQPEDFATYYCQQTHSFPLTFGGGTKVEIK |  | no binding (tested: <0.02 nm at 115 s; 500 nM) | no binding (tested: <0.02 nm at 115 s; 500 nM) |
| Antibody 10 (scFv, V domains shown) VH: QVQLVQSGAEVKKPGASVKVSCKASGGTFSNYDISWVRQAPGQGLEWMGMIDPSGGSTSYAQKFQGRVTMTRDTSTSTVYMELSSLRSEDTAVYYCARPYSSGWYYFDYWGQGTLVTVSS VL: DIQMTQSPSSLSASVGDRVTITCQASQDIHNYLNWYQQKPGKAPKLLIYDASNLETGVPSRFSGSGSGTDFTLTISSLQPEDFATYYCQQSYNTPPTFGQGTRLEIK | no binding (tested: <0.02 nm at 115 s) | no binding (tested: <0.02 nm at 115 s; 500 nM) | no binding (tested: <0.02 nm at 115 s; 500 nM) |
| Antibody 31 (scFv, V domains shown) VH: QVQLVQSGAEVKKPGASVKVSCKASGGTFRSYAISWVRQAPGQGLEWMGWMNPNSGNTGYAQKFQGRVTMTRDTSTSTVYMELSSLRSEDTAVYYCARESVLKGGMDVWGQGTTVTVSS VL: DIVMTQSPDSLAVSLGERATINCRSSQSLFHSSTNANNLAWYQQKPGQPPKLLIYWASTRESGVPDRFSGSGSGTDFTLTISSLQAEDVAVYYCQQYYITPLTFGQGTRLEIK | no binding (tested: <0.02 nm at 115 s) | no binding (tested: <0.02 nm at 115 s; 500 nM) |  |
| Antibody 19 (scFv, V domains shown) VH: QVQLVQSGAEVKKPGASVKVSCKASGYTFTAYYMHWVRQAPGQGLEWMGIINPSGGSTSYAQKFQGRVTMTRDTSTSTVYMELSSLRSEDTAVYYCARDSGWYAPGYYYGMDVWGQGTTVTVSS VL: DIQMTQSPSSLSASVGDRVTITCRASESISHWLAWYQQKPGKAPKLLIYGASTLQSGVPSRFSGSGSGTDFTLTISSLQPEDFATYYCQQSYTPPLTFGGGTKVEIK |  | no binding (tested: <0.02 nm at 115 s; 500 nM) | no binding (tested: <0.02 nm at 115 s; 500 nM) |
| Antibody 12 (scFv, V domains shown) VH: QVQLVQSGAEVKKPGASVKVSCKASGGTFGSYGINWVRQAPGQGLEWMGWISAYNGNTNYAQKLQGRVTMTRDTSTSTVYMELSSLRSEDTAVYYCARDGIDYGGNSGYDYWGQGTLVTVSS VL: DIQMTQSPSSLSASVGDRVTITCRASQNIRNYLNWYQQKPGKAPKLLIYAASSLQGGVPSRFSGSGSGTDFTLTISSLQPEDFATYYCQQSYNGPYTFGQGTKVEIK |  | no binding (tested: <0.02 nm at 115 s; 500 nM) | no binding (tested: <0.02 nm at 115 s; 500 nM) |
| Antibody 47 (scFv, V domains shown) VH: QVQLVQSGAEVKKPGASVKVSCKASGYTFTTYGISWVRQAPGQGLEWMGWMDPNSGSTGYAQKFQGRVTMTRDTSTSTVYMELSSLRSEDTAVYYCARGRGNSYYYYYMDVWGKGTTVTVSS VL: DIQMTQSPSSLSASVGDRVTITCRASQRIGSYLNWYQQKPGKAPKLLIYGASNLQSGVPSRFSGSGSGTDFTLTISSLQPEDFATYYCQQANSFPFTFGPGTKVDIK | no binding (tested: <0.02 nm at 115 s) | no binding (tested: <0.02 nm at 115 s; 500 nM) | no binding (tested: <0.02 nm at 115 s; 500 nM) |
| Antibody 9 (scFv, V domains shown) VH: QVQLVQSGAEVKKPGASVKVSCKASGYSFSDYYMHWVRQAPGQGLEWMGWMSPNSGNTGYAQKFQGRVTMTRDTSTSTVYMELSSLRSEDTAVYYCARQREEYGHYYYGMDVWGQGTMVTVSS VL: EIVMTQSPATLSVSPGERATLSCRASQSLGSTYLAWYQQKPGQAPRLLIYGASTRATGIPARFSGSGSGTEFTLTISSLQSEDFAVYYCQQYYSSPPTFGQGTKVEIK | no binding (tested: <0.02 nm at 115 s) | no binding (tested: <0.02 nm at 115 s; 500 nM) | no binding (tested: <0.02 nm at 115 s; 500 nM) |
| Antibody 13 (scFv, V domains shown) VH: EVQLLESGGGLVQPGGSLRLSCAASGFTFSNSDMNWVRQAPGKGLEWVSYISSSGNTIYYADSVKGRFTISRDNSKNTLYLQMNSLRAEDTAVYYCARSNWNYPLDYYYMDVWGKGTTVTVSS VL: DIVMTQSPLSLPVTPGEPASISCRSSQSLLHSNGYNYLDWYLQKPGQSPQLLIYAASSLQSGVPDRFSGSGSGTDFTLKISRVEAEDVGVYYCMQGTHWPPTFGQGTKVEIK | no binding (tested: <0.02 nm at 115 s) | no binding (tested: <0.02 nm at 115 s; 500 nM) | no binding (tested: <0.02 nm at 115 s; 500 nM) |

Further lines, with some results ahead:

| binding [2] | Binder | binding [1] | binding [3] |
| --- | --- | --- | --- |
| no binding (tested: <0.02 nm at 115 s) | Antibody 50 (scFv, V domains shown) VH: QVQLVQSGAEVKKPGASVKVSCKASGYTFTGYYMHWVRQAPGQGLEWMGTINPSGGSTSYAQKFQGRVTMTRDTSTSTVYMELSSLRSEDTAVYYCVKGNGYYDLWGQGTLVTVSS VL: DIQMTQSPSSLSASVGDRVTITCRASQSISSWLAWYQQKPGKAPKLLIYDTSNLQGGVPSRFSGSGSGTDFTLTISSLQPEDFATYYCQQYDSFPWTFGQGTKVEIK | no binding (tested: <0.02 nm at 115 s; 500 nM) |  |
| no binding (tested: <0.02 nm at 115 s) | Antibody 48 (scFv, V domains shown) VH: QVQLVQSGAEVKKPGASVKVSCKASGYTFTSYYMHWVRQAPGQGLEWMGWMNPNSGNTGYAQKFQGRVTMTRDTSTSTVYMELSSLRSEDTAVYYCARDQMYSSYGMDVWGQGTTVTVSS VL: DIQMTQSPSSLSASVGDRVTITCRASESITNWLAWYQQKPGKAPKLLIYKASSLESGVPSRFSGSGSGTDFTLTISSLQPEDFATYYCQQSYGTPYTFGQGTKVEIK | no binding (tested: <0.02 nm at 115 s; 500 nM) | no binding (tested: <0.02 nm at 115 s; 500 nM) |
| no binding (tested: <0.02 nm at 115 s) | Antibody 52 (scFv, V domains shown) VH: QVQLVQSGAEVKKPGASVKVSCKASGYTFTSYDINWVRQAPGQGLEWMGWISGYNGNTNYAQKFQGRVTMTRDTSTSTVYMELSSLRSEDTAVYYCARSFDWLLLLDYWGQGTLVTVSS VL: DIQMTQSPSSLSASVGDRVTITCRASQSISSWLAWYQQKPGKAPKLLIYDATTLESGVPSRFSGSGSGTDFTLTISSLQPEDFATYYCQQYDSYPWTFGQGTKLEIK | no binding (tested: <0.02 nm at 115 s; 500 nM) | no binding (tested: <0.02 nm at 115 s; 500 nM) |
| no binding (tested: <0.02 nm at 115 s) | Antibody 51 (scFv, V domains shown) VH: QVQLVQSGAEVKKPGASVKVSCKASGYTFTRYDINWVRQAPGQGLEWMGWMNPNSGNTGYAQKLQGRVTMTRDTSTSTVYMELSSLRSEDTAVYYCARERVGYCSSTSCLHPLDYWGQGTLVTVSS VL: DIQMTQSPSSLSASVGDRVTITCRASQGIRNDLGWYQQKPGKAPKLLIYSASNLQSGVPSRFSGSGSGTDFTLTISSLQPEDFATYYCQQSYDVPLTFGGGTKVEIK | no binding (tested: <0.02 nm at 115 s; 500 nM) | no binding (tested: <0.02 nm at 115 s; 500 nM) |
| no binding (tested: <0.02 nm at 115 s) | Antibody 53 (scFv, V domains shown) VH: QVQLVQSGAEVKKPGASVKVSCKASGHTFNNNYIHWVRQAPGQGLEWMGIINPSGGSTSYAQKFQGRVTMTRDTSTSTVYMELSSLRSEDTAVYYCARQIQDYGYYYYGMDVWGQGTTVTVSS VL: EIVMTQSPATLSVSPGERATLSCRASQSVSKYLAWYQQKPGQAPRLLIYAISARAAGIPARFSGSGSGTEFTLTISSLQSEDFAVYYCQQYYSSPPTFGQGTKVEIK | no binding (tested: <0.02 nm at 115 s; 500 nM) | no binding (tested: <0.02 nm at 115 s; 500 nM) |
